Test results from PubChem BioAssay AID1347076 (National Center for Advancing Translational Sciences (NCATS), 2019).
The campaign covered roughly 400,000 compounds. About 13,000 (3.2%) were called active. Inconclusive means that the source gave no clear call. Such entries were picked first, then a sample of the others. Calls come from the whole dose curve; as a rule, active = well fitted cell-killing curve with a large enough effect; inconclusive = small, poorly fitted or top-dose-only effect, or effect the other way; inactive = flat fitted curve, though single readings scatter. Where the call is inconclusive, the potency comes from a doubtful curve fit.

Assay: qHTS assay for MDR1-selective chemotherapeutics: Primary screen using the drug-selected MDR subline cells KB-V1; note: nearly all actives have a fitted effect of over 60% in size
Details: KB-V1 MDR cells viability, CellTiter-Glo, 72 h; activity change, negative = cytotoxicity: at 46.1 µM (top of the series)
Procedure, shortened: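 Cytotoxicity via CellTiter-Glo luminescence after 72 h compound exposure at 37 degrees C. Cells: drug-selected KB-V1 line, DMEM phenol-red free plus 10% FBS. Compounds tested at multiple concentrations; normalized data fitted to concentration-effect curves.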
% is set by controls: 0 for no effect and ±100 for the full control effect; potency is the fitted concentration of half-maximal effect.

SMILES | Potency | activity change, negative = cytotoxicity
CC(C)Cc1nc2oc3c(NCC4CCCO4)ncnc3c2c2c1CCC2 (stereo not given) | active: 10.3 µM | 
COc1ccccc1-c1cnc(C(O)c2ccc(Cl)c(Cl)c2)[nH]1 (stereo not given) | active: 23.1 µM | 
CC1N=C2c3ccccc3N=C(SCc3cc(=O)n4cc(Cl)ccc4n3)N2C1=O (stereo not given) | inconclusive: 4.11 µM [cytotoxic, partial curve] | 
O=C(COc1ccc(S(=O)(=O)NCc2ccccc2)cc1Cl)NCc1ccccn1 | inconclusive: 23.1 µM [cytotoxic, single point] | 
O=c1[nH]c(NCc2ccco2)nnc1Cc1ccccc1Cl | inconclusive: 13 µM [cytotoxic, partial curve] | 
COC(=O)[C@@]12C[C@@H](CC(=O)NCc3cccc(C(F)(F)F)c3)C(=O)N(CCc3ccc(OC)c(OC)c3)C1=CCC(C)(C)C2 | active: 16.4 µM | 
COCCN1Cc2cccc(C(=O)Nc3ccc(C)cc3)c2C1=O | inconclusive: 0.0082 µM [cytotoxic, full curve, poor fit] | 
COc1ccc(S(=O)(=O)N(C)c2ccc(C(=O)N3CCN(c4ccccc4)CC3)cc2)cc1OC | inconclusive: 7.31 µM [cytotoxic, partial curve, poor fit] | 
Cc1nnc(SCC(=O)Nc2ccc(F)cc2F)n(N)c1=O | inconclusive: 25.9 µM [rising, partial curve, poor fit] | 
NS(=O)(=O)c1ccc(NCc2cc(Cl)ccc2OCc2ccccc2F)cc1 | inconclusive: 23.1 µM [cytotoxic, single point] | 
O=[N+]([O-])c1ccc(Oc2ccc(S(=O)(=O)N3CCCCC3)cc2)cc1 | inconclusive: 10.3 µM [cytotoxic, partial curve] | 
CC(C)C[C@H]1CNC(=S)N1C[C@H]1CCCN1C[C@H](Cc1ccccc1)N1C[C@H](Cc2ccc(O)cc2)N(CC2CCCCC2)C1=S | inconclusive: 29.1 µM [cytotoxic, single point] | 
CCN1CCc2nc3ccccc3c(C(=O)Nc3ccc(C#N)cc3)c2C1 |  | inactive: 15.7%
Cc1ccc(C(=O)NC2CCN(CC(=O)Nc3c(C)cc(C)cc3C)CC2)cc1 | inconclusive: 7.31 µM [cytotoxic, partial curve] | 
O=C(NCCC1=CCCCC1)c1ccc(CN2CCOCC2)cc1 | inconclusive: 29.1 µM [cytotoxic, single point] | 
Cc1ccc(CN(C(=O)Cc2cccs2)C(C(=O)NC2CCCC2)c2ccncc2)cc1 (stereo not given) | inconclusive: 23.1 µM [cytotoxic, single point] | 
Cn1c(=O)c2c(nc(CN3CCN(c4ccccc4F)CC3)n2CCN2CCOCC2)n(C)c1=O | inconclusive: 7.31 µM [cytotoxic, partial curve] | 
Cc1ccc(-c2c(C(=O)N3CCN(c4cccc(C)c4)C(C)C3)oc(=O)c3ccccc23)cc1 (stereo not given) | inconclusive: 11.6 µM [cytotoxic, single point] | 
COc1ccc(NC(=O)CCS(=O)(=O)c2cc3c(cc2Cl)NC(=O)CO3)cc1OC | inconclusive: 29.1 µM [cytotoxic, single point] | 
CCN(CC)c1ccc(/C=N\NC(=O)c2cccc3cc[nH]c23)cc1 | active: 13 µM | 

As entered above:
Entry for Cn1c(=O)c2c(nc(CN3CCN(c4ccccc4F)CC3)n2CCN2CCOCC2)n(C)c1=O under Potency: inconclusive: 7.31 µM [cytotoxic, partial curve]
Entry for CC(C)C[C@H]1CNC(=S)N1C[C@H]1CCCN1C[C@H](Cc1ccccc1)N1C[C@H](Cc2ccc(O)cc2)N(CC2CCCCC2)C1=S under Potency: inconclusive: 29.1 µM [cytotoxic, single point]
Entry for O=C(COc1ccc(S(=O)(=O)NCc2ccccc2)cc1Cl)NCc1ccccn1 under Potency: inconclusive: 23.1 µM [cytotoxic, single point]

Remaining list, next part.

SMILES | Potency | activity change, negative = cytotoxicity
O=C1N=C(N2CCN(Cc3ccccc3)CC2)S/C1=C/c1cccs1 | inconclusive: 16.4 µM [cytotoxic, single point] | 
Cc1ccc(/C=N/n2c(C3CCCCC3)n[nH]c2=S)s1 | inconclusive: 14.6 µM [cytotoxic, partial curve] | 
N/C(=N\OC(=O)c1ccc(Cl)c(Cl)c1)c1ccccn1 |  | inactive: 0.384%
Cc1cc(C)n(CC(=O)NNC(=O)CCCOc2ccc(Cl)cc2C)n1 | inconclusive: 29.1 µM [cytotoxic, single point] | 
Cc1ccc(S(=O)(=O)Nc2ccc(NC(=O)Nc3cccc(C(F)(F)F)c3)cc2)cc1 | inconclusive: 29.1 µM [cytotoxic, single point] | 
COc1ccccc1CNc1nc(NCc2ccccc2F)c2sccc2n1 | active: 18.4 µM | 
Cc1ccccc1NS(=O)(=O)c1ccc(S(=O)(=O)N2CCCC2)cc1 |  | inactive: -10.2%
O=C(NNC(=O)c1ccccc1Br)c1cnccn1 | inconclusive: 20.6 µM [cytotoxic, single point] | 
CCCCCNc1nc(NCCCO)c(C#N)c2c1CN(C)CC2 | inconclusive: 13 µM [cytotoxic, partial curve] | 
CCOC(=O)c1cc2c(=O)n3ccccc3nc2n(CCCOC)c1=NC(=O)c1ccncc1 | inconclusive: 8.2 µM [cytotoxic, partial curve] | 
COc1ccc(CNC(=O)c2c(C)cc(=O)oc2C)cc1OC |  | inactive: 13.8%
CC(Oc1ccc(F)cc1)C(=O)Nc1cc(S(=O)(=O)N2CCOCC2)ccc1N1CCCCC1 (stereo not given) | inconclusive: 29.1 µM [cytotoxic, single point] | 
CCOc1ccccc1NS(=O)(=O)c1ccc2c(c1)CC(C)N2C(=O)C1CC1 (stereo not given) | inconclusive: 5.8 µM [cytotoxic, partial curve] | 
Cc1sc2nc(CSc3ccc([N+](=O)[O-])c(C(F)(F)F)c3)[nH]c(=O)c2c1C | inconclusive: 18.4 µM [cytotoxic, partial curve, poor fit] | 
COc1ccc(C2CC(=O)N3CN(c4ccc(C)c(Cl)c4)CSC3=C2C#N)cc1 (stereo not given) | inconclusive: 0.0461 µM [rising, full curve, poor fit] | 
Cn1c(CN2CCCCC2)nc2cc(NS(=O)(=O)c3ccc(Cl)cc3)ccc21 | inconclusive: 13 µM [cytotoxic, partial curve] | 
CC1CCCC(C)N1S(=O)(=O)c1ccc(S(=O)(=O)NCCc2ccncc2)cc1 (stereo not given) | inconclusive: 23.1 µM [cytotoxic, single point] | 
Fc1ccc(N/N=C/c2ccc(N3CCOCC3)cc2)c(F)c1 | inconclusive: 29.1 µM [cytotoxic, single point] | 
Cc1ccc(C(=O)CCS(=O)(=O)c2ccc(Br)cc2)cc1 |  | inactive: 0%
COc1ccc(C(=O)N/C(=C\c2cn(C)c3ccccc23)C(=O)NCCCN2CCOCC2)cc1 | inconclusive: 20.6 µM [rising, single point] | 
